The other results are listed elsewhere or left out.
Experiments:
Assay in all cases: log2 fold change, soluble protein after heating vs DMSO (PISA); higher = thermal stabilisation; K562 lysate, 10 uM; active = over 0.2 and 3.5 SD of the protein, either way, in both replicates (recomputed)
[1] = compound: C#Cc1cccc(Nc2ncnc3cc(OCCOC)c(OCCOC)cc23)c1 [erlotinib]
In short: (§1)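 K562 pellets were dounce-homogenised in PBS pH 7.4 containing 1 mM MgCl2, and the crude extract, at 1 mg/mL protein, was exposed to 10 μM compound for 30 min. Aliquots were heated for 3 min across 48°C-58°C, pooled, brought to 0.5% NP-40 at 4°C and spun at 21,000xg for 90 min, with the supernatant taken as soluble protein. TMTpro 16plex LC-MS/MS with equalised channel sums quantified that protein. Values are log-two fold changes in thermal stability relative to solvent controls, taken from duplicates.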

Chains of the proteins cited; added tags and fusions are not shown. Lines headed by an entry give the natural chain unless they say otherwise; changes in a name come on top.
UniProt O95336: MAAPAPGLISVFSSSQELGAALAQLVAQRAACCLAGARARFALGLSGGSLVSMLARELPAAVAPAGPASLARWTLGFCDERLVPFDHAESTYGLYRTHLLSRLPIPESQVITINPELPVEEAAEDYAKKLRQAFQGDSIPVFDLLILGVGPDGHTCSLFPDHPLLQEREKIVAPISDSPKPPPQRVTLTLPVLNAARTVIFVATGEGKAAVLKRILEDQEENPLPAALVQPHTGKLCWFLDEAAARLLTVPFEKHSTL
UniProt Q9NWS0, whole entry, looked up: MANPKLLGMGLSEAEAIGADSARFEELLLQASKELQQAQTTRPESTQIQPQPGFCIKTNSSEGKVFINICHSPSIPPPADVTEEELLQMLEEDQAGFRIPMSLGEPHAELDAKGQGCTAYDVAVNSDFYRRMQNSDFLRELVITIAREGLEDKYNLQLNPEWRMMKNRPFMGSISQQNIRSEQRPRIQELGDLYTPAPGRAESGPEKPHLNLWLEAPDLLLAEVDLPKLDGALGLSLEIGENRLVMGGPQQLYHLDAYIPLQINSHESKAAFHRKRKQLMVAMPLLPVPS
UniProt Q8TBX8: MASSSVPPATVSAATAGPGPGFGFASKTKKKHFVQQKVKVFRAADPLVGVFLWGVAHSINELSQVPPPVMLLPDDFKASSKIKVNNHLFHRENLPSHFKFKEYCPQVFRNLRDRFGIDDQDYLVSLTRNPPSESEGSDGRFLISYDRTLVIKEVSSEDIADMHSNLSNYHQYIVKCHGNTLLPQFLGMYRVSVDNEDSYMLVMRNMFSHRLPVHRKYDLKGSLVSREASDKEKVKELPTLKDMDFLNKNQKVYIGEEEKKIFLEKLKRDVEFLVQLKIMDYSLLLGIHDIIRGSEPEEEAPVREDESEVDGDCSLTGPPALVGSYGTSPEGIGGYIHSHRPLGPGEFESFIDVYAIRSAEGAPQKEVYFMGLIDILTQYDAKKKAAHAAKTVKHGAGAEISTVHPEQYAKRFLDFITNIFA
UniProt Q16513: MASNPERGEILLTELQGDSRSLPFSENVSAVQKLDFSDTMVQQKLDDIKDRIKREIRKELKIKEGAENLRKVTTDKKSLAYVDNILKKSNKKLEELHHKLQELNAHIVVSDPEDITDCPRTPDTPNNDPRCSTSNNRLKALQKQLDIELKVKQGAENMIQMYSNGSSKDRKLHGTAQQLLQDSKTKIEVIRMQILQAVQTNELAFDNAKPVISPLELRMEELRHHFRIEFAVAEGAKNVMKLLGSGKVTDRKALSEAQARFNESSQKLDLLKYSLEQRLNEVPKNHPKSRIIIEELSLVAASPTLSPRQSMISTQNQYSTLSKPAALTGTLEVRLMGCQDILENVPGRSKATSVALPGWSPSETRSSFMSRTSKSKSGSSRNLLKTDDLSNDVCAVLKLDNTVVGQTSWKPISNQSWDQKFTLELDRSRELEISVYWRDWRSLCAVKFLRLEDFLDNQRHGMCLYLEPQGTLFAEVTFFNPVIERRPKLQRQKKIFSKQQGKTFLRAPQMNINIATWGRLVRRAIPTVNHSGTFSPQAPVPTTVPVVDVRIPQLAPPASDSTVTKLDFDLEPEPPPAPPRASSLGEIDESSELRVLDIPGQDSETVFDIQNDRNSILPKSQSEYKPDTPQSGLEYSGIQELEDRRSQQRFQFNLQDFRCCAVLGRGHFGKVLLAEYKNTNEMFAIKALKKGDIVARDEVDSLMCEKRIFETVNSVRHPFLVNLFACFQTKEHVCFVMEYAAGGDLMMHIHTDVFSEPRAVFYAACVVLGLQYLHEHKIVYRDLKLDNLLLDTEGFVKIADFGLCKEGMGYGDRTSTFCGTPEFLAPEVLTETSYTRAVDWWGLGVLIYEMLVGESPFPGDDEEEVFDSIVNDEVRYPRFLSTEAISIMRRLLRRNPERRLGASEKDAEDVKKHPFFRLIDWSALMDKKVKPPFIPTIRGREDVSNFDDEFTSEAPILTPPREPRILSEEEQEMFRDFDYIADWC
UniProt Q8NCC3: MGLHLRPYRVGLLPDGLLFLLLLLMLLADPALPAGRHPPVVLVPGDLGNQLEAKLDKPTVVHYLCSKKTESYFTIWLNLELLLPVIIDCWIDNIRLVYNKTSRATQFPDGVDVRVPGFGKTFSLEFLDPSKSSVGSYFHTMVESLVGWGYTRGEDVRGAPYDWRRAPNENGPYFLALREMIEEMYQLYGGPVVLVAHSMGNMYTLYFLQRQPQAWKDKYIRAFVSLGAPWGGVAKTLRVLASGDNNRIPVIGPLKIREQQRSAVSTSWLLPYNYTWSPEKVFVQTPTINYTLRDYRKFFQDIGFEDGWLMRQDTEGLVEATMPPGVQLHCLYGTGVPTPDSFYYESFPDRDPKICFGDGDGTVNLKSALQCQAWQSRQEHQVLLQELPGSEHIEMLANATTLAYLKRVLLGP
UniProt Q92576, whole entry, looked up: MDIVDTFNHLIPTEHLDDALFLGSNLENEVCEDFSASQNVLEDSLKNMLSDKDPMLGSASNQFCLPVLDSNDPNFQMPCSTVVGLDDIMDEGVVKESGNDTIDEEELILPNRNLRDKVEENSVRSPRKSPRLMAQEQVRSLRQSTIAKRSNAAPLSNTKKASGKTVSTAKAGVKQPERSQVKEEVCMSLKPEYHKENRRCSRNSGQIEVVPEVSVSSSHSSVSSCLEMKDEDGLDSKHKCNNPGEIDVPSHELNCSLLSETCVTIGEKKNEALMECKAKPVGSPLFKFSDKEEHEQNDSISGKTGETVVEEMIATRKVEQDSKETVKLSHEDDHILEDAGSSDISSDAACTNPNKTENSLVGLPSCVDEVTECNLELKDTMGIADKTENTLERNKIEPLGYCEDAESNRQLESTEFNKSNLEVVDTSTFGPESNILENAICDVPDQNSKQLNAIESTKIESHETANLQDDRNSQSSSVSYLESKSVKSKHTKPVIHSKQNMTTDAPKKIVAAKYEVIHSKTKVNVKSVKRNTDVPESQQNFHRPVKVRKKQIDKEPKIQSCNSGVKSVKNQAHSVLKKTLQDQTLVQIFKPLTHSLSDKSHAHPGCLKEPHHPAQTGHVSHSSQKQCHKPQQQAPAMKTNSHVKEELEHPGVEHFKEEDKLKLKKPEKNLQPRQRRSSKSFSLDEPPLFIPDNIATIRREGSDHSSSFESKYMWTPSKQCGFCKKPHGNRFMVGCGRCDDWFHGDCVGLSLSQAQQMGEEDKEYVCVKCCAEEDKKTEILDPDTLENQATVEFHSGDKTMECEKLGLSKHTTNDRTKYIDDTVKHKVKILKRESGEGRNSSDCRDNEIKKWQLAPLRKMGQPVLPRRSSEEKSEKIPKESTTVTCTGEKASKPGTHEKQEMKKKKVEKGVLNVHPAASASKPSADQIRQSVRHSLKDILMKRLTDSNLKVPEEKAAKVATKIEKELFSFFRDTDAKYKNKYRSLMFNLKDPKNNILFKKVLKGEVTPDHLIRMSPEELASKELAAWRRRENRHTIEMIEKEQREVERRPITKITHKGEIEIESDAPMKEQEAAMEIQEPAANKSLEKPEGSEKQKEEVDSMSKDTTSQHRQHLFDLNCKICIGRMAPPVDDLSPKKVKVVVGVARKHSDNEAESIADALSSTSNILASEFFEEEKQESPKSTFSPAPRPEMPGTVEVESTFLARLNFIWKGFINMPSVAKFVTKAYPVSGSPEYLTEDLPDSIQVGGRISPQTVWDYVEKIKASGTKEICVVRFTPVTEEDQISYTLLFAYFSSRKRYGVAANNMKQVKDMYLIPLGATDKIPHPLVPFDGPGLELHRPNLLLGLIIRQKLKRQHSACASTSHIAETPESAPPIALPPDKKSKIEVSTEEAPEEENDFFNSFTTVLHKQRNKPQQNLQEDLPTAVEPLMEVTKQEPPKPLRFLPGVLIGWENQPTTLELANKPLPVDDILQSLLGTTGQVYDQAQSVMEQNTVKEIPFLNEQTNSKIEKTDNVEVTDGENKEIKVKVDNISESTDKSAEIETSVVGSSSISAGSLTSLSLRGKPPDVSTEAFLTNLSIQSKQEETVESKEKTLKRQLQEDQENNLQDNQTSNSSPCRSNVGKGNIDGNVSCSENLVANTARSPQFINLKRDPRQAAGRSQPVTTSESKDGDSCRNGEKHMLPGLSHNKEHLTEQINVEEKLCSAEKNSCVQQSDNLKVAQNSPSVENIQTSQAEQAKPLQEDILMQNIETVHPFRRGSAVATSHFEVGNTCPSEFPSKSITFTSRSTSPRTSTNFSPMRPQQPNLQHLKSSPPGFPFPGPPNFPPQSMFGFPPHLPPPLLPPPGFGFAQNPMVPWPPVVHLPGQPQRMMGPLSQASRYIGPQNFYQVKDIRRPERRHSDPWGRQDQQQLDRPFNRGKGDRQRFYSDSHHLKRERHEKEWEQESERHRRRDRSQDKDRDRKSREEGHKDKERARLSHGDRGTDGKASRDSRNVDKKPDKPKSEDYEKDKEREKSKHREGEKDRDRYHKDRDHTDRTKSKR
UniProt P15735: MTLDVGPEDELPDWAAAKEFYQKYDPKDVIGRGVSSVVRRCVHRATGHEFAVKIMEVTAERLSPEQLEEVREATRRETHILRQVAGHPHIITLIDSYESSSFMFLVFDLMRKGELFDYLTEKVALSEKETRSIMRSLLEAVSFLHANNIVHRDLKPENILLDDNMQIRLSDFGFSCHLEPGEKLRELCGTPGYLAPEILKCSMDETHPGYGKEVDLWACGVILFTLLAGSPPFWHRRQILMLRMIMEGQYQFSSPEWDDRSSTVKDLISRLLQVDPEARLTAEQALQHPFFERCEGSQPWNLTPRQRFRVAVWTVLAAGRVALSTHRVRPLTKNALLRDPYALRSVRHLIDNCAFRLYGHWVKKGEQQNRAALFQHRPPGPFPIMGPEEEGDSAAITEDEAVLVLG
UniProt Q8IWS0: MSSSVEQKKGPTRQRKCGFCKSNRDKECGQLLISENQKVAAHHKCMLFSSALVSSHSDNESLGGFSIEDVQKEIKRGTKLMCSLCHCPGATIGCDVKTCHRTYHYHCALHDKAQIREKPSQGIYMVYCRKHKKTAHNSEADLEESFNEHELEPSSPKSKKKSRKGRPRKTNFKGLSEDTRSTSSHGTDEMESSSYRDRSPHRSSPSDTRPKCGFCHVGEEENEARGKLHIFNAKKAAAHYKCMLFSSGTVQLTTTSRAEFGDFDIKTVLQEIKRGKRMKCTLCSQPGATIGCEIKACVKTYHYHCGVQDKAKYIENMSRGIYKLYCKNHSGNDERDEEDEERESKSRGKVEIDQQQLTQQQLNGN
UniProt Q8TCG2: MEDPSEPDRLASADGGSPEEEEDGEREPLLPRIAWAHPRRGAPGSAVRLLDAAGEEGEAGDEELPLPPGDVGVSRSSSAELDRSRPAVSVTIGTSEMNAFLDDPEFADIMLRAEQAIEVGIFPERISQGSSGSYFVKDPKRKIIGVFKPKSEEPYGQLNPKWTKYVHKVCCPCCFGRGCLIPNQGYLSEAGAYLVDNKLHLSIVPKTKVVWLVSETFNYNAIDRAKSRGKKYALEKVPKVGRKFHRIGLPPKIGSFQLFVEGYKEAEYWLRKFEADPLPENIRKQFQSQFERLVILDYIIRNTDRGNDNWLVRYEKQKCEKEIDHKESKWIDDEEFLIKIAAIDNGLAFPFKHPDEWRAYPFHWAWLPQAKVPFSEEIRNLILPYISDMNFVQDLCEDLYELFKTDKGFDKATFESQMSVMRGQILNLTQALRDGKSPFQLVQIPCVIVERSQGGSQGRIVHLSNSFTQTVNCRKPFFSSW
UniProt Q32NB8: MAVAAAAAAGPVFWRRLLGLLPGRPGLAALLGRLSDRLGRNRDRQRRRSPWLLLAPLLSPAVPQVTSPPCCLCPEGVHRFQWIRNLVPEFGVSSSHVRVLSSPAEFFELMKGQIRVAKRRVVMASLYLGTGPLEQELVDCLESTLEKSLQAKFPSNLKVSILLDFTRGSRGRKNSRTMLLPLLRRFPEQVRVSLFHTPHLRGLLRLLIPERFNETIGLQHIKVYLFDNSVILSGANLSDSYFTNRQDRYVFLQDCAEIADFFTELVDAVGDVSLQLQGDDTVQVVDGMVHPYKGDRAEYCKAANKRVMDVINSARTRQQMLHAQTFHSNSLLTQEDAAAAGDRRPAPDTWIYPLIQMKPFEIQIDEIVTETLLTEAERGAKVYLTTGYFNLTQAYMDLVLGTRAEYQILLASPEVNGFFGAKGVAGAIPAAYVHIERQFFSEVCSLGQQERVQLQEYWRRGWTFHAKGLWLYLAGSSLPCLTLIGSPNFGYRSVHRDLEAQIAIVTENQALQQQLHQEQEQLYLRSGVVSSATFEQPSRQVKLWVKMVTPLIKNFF
UniProt Q9Y237, whole entry, looked up: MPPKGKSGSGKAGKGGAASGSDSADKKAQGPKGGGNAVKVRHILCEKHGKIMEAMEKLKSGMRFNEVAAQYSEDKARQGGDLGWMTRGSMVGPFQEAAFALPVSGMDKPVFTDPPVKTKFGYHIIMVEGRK

[2] = compound: C/C(=N\NC(=O)C1=CC(=CC=C1)S(=O)(=O)N2CCOCC2)/C3=C(C=CC(=C3)Cl)O
In short: as §1

[3] = compound: C1=CC(=CC=C1C2=NC3=C(N2)C=C(C=C3)C(=O)N)OC4=CC=C(C=C4)Cl
In short: as §1

[4] = compound: C1=CC2=C(C=CC(=C2)/C=C\3/C(=O)NC(=NCC4=CC=CS4)S3)N=C1
In short: as §1

[5] = compound: C1=CC2=NC=CN=C2C=C1/C=C/3\C(=O)NC(=O)S3
In short: as §1

[6] = compound: C1=CC=C(C=C1)C2=NC(=C(N2)C3=CC=NC=C3)C4=CC(=C(C=C4)Cl)O
In short: as §1

[7] = compound: C1=CC=C2C(=C1)C3=NNC4=CC=CC(=C43)C2=O
In short: as §1

[8] = compound: C1CCN(C1)C(=O)NC2=CC=CC(=C2)NC3=NC=C(C(=N3)NCCC4=CN=CN4)Br
In short: as §1

[9] = compound: C1CN(CCC1(CC2=CC=C(C=C2)Cl)N)C3=NC=NC4=C3C=CN4
In short: as §1

[10] = compound: C1COCCN1CCN2C3=CC=CC=C3N=C2NC(=O)C4=CC(=CC=C4)[N+](=O)[O-] [IRAK-1-4 Inhibitor I]
In short: as §1

[11] = compound: C=CC(=O)N1CCC[C@@H](n2nc(-c3ccc(Oc4ccccc4)cc3)c3c(N)ncnc32)C1 [ibrutinib]
In short: as §1

[12] = compound: CC(=O)c1cnc2ccc(-c3cc(Cl)c(O)c(Cl)c3)nc2c1N[C@H]1CC[C@H](CN(C)C)CC1
In short: as §1

[13] = compound: CC(C)(C)Cn1c(N)nc2ccc(-c3[nH]c(C(C)(C)C)nc3-c3ccc(F)cc3)nc21 [ralimetinib]
In short: as §1

[14] = compound: CC(C)(O)CC(=O)NCCn1ccc2ncnc(Nc3ccc(Oc4cccc(C(F)(F)F)c4)c(Cl)c3)c21
In short: as §1

[15] = compound: CC(C)C1=C2N=C(C=C(N2N=C1)NCC3=CC=CC=C3)NCCCCCCN
In short: as §1

[16] = compound: CC1=C(C(CC(=O)N1)C2=CC=C(C=C2)C(F)(F)F)C(=O)NC3=C(C=C4C(=C3)C=NN4)F
In short: as §1

[17] = compound: CC1=C(C2=C(C=C1)C(=O)C3=CC=CC=C3N2CCCN)C
In short: as §1

[18] = compound: CC1=C(C=C(C=C1)NC(=O)C2=CC(=CC=C2)C(C)(C)C#N)NC3=CC4=C(C=C3)N=CN(C4=O)C
In short: as §1

[19] = compound: CC1=C(C=C(C=C1)NC(=O)C2=CC(=CC=C2)N(C)C)NC(=O)C3=CC=C(C=C3)O
In short: as §1

[20] = compound: CC1=CC=C(C=C1)SC2=C3C=C(SC3=CN=C2)C(=O)N
In short: as §1

Measured: log2 fold change

PGLS (UniProt O95336)
inactive: [1] -0.019 | [2] -0.026 | [3] -0.08 | [4] -0.039 | [5] -0.039 | [6] -0.077 | [7] -0.04 | [8] -0.112 | [9] 0.025 | [10] -0.043 | [11] 0.012 | [12] -0.08 | [13] 0.06 | [14] 0.008 | [15] 0.001 | [16] -0.012 | [17] -0.075 | [18] 0.038 | [19] -0.003 | [20] 0.077

PIEZO1 (UniProt Q92508)
inactive: [1] -0.055 | [2] 0.053 | [3] -0.001 | [4] 0.016 | [5] 0.002 | [6] 0.001 | [7] -0.029 | [8] -0.026 | [9] 0.047 | [10] 0.016 | [11] 0.007 | [12] 0.017 | [13] 0.034 | [14] -0.053 | [15] -0.017 | [16] -0.043 | [17] -0.037 | [18] 0.016 | [19] -0.001 | [20] -0.012

PIH1D1 (UniProt Q9NWS0)
inactive: [1] -0.011 | [2] 0.012 | [3] -0.013 | [4] 0.024 | [5] 0.009 | [6] 0.009 | [7] -0.003 | [8] -0.008 | [9] 0 | [10] 0.02 | [11] -0.011 | [12] 0.003 | [13] 0 | [14] -0.009 | [15] -0.023 | [16] 0.006 | [17] -0.007 | [18] 0.001 | [19] 0.012 | [20] -0.005

PINX1 (UniProt Q96BK5)
inactive: [1] 0 | [2] -0.158 | [3] 0.05 | [4] 0.305 | [5] -0.054 | [6] 0.015 | [7] -0.18 | [8] -0.136 | [9] -0.049 | [10] -0.017 | [11] 0.006 | [12] -0.003 | [13] -0.07 | [14] 0.017 | [15] 0.041 | [16] 0.064 | [17] -0.183 | [18] 0.066 | [19] -0.028 | [20] 0.05

Taken from the entries so far (3 entries):
PGLS (UniProt O95336)
inactive: [1] -0.019 | [2] -0.026 | [3] -0.08 | [4] -0.039 | [5] -0.039 | [6] -0.077 | [7] -0.04 | [8] -0.112 | [9] 0.025 | [10] -0.043 | [11] 0.012 | [12] -0.08 | [13] 0.06 | [14] 0.008 | [15] 0.001 | [16] -0.012 | [17] -0.075 | [18] 0.038 | [19] -0.003 | [20] 0.077

PIEZO1 (UniProt Q92508)
inactive: [1] -0.055 | [2] 0.053 | [3] -0.001 | [4] 0.016 | [5] 0.002 | [6] 0.001 | [7] -0.029 | [8] -0.026 | [9] 0.047 | [10] 0.016 | [11] 0.007 | [12] 0.017 | [13] 0.034 | [14] -0.053 | [15] -0.017 | [16] -0.043 | [17] -0.037 | [18] 0.016 | [19] -0.001 | [20] -0.012

PIH1D1 (UniProt Q9NWS0)
inactive: [1] -0.011 | [2] 0.012 | [3] -0.013 | [4] 0.024 | [5] 0.009 | [6] 0.009 | [7] -0.003 | [8] -0.008 | [9] 0 | [10] 0.02 | [11] -0.011 | [12] 0.003 | [13] 0 | [14] -0.009 | [15] -0.023 | [16] 0.006 | [17] -0.007 | [18] 0.001 | [19] 0.012 | [20] -0.005

(cont.)

PIP4K2C (UniProt Q8TBX8)
inactive: [1] 0.104 | [2] -0.289 | [3] 0.033 | [4] 0.004 | [6] 0.137 | [7] 0.127 | [8] 0.231 | [9] -0.055 | [10] -0.005 | [11] 0.012 | [12] 0.277 | [13] 0.039 | [14] -0.055 | [15] -0.055 | [16] -0.047 | [17] -0.027 | [18] 0.03 | [19] -0.027 | [20] -0.031
active: [5] 0.496

PKN2 (UniProt Q16513)
inactive: [1] -0.024 | [2] 0.009 | [3] 0.022 | [4] -0.115 | [5] -0.066 | [6] 0.021 | [7] -0.115 | [8] -0.13 | [9] -0.119 | [10] -0.04 | [11] -0.003 | [12] -0.074 | [13] 0.036 | [14] -0.007 | [15] -0.009 | [16] 0.027 | [17] 0.018 | [18] 0.038 | [19] 0.016 | [20] 0.013

PLA2G15 (UniProt Q8NCC3)
inactive: [1] 0.004 | [2] -0.066 | [3] -0.022 | [4] 0.021 | [5] -0.005 | [6] 0.013 | [7] 0.019 | [8] 0.036 | [9] -0.067 | [10] 0.005 | [11] 0.051 | [12] 0.013 | [13] 0.005 | [14] 0.052 | [15] -0.028 | [16] 0.001 | [17] -0.001 | [18] 0.036 | [19] 0.027 | [20] -0.01

PHF3 (UniProt Q92576)
inactive: [1] -0.016 | [2] -0.067 | [3] -0.001 | [4] 0.024 | [5] -0.058 | [6] -0.037 | [7] 0.013 | [8] 0.003 | [9] 0.032 | [10] 0.031 | [11] 0.007 | [12] 0.011 | [13] -0.005 | [14] -0.035 | [15] -0.006 | [16] 0.054 | [17] -0.031 | [18] -0.005 | [19] 0 | [20] -0.012

PHRF1 (UniProt Q9P1Y6)
inactive: [1] 0 | [2] 0.018 | [3] -0.163 | [4] 0.05 | [5] 0.018 | [6] 0.055 | [7] -0.025 | [8] -0.053 | [9] -0.026 | [10] -0.001 | [11] -0.033 | [12] -0.017 | [13] -0.011 | [14] -0.056 | [15] 0.255 | [16] -0.002 | [17] -0.043 | [18] -0.036 | [19] -0.027 | [20] 0.019

PHKG2 (UniProt P15735)
inactive: [1] -0.106 | [2] 0.062 | [3] 0.04 | [4] 0.075 | [5] 0.104 | [6] 0.022 | [7] 0.231 | [8] 0.045 | [9] -0.011 | [10] 0.036 | [11] -0.099 | [12] 0.168 | [13] 0.003 | [14] -0.011 | [15] 0.03 | [16] -0.029 | [17] -0.018 | [18] -0.018 | [19] -0.004 | [20] -0.027

PHF6 (UniProt Q8IWS0)
inactive: [1] -0.056 | [2] 0.027 | [3] -0.035 | [4] 0.006 | [5] 0.016 | [6] 0.005 | [7] 0.021 | [8] -0.001 | [9] 0.025 | [10] -0.075 | [11] 0.03 | [12] -0.076 | [13] -0.025 | [14] 0.019 | [15] 0.297 | [16] -0.04 | [17] -0.037 | [18] 0.017 | [19] -0.001 | [20] 0.022

PI4K2B (UniProt Q8TCG2)
inactive: [1] 0.023 | [2] 0.035 | [3] -0.041 | [4] -0.089 | [5] -0.002 | [6] -0.047 | [7] 0.009 | [8] -0.07 | [9] 0.136 | [10] 0.026 | [11] -0.028 | [12] 0.04 | [13] 0.103 | [14] 0.069 | [15] -0.063 | [16] -0.075 | [17] -0.005 | [18] -0.082 | [19] 0.001 | [20] 0.005

PIGO (UniProt Q8TEQ8)
inactive: [1] 0.179 | [2] -0.423 | [3] -0.266 | [4] 0.242 | [5] 0.132 | [6] 0.001 | [7] -0.285 | [8] -0.001 | [9] 0.117 | [10] 0.114 | [11] 0.093 | [12] 0.016 | [13] -0.039 | [14] -0.013 | [15] -0.068 | [16] -0.041 | [17] -0.05 | [18] -0.1 | [19] -0.047 | [20] -0.158

PGS1 (UniProt Q32NB8)
inactive: [1] -0.019 | [2] -0.265 | [3] -0.162 | [4] 0.222 | [5] 0.131 | [6] -0.016 | [7] -0.121 | [8] -0.066 | [9] 0.071 | [10] 0.038 | [11] 0.022 | [12] 0.075 | [13] -0.002 | [14] -0.09 | [15] 0.071 | [16] -0.142 | [17] 0.03 | [18] -0.071 | [19] 0.043 | [20] 0.164

PHF21A isoform 3 (UniProt Q96BD5)
inactive: [1] 0.047 | [2] -0.063 | [3] 0.039 | [4] 0.116 | [5] -0.091 | [6] 0.223 | [7] 0.061 | [8] 0.018 | [9] -0.014 | [10] 0.021 | [11] -0.058 | [12] 0.183 | [13] -0.092 | [14] -0.013 | [15] -0.01 | [16] -0.021 | [17] -0.057 | [18] -0.043 | [19] -0.139 | [20] -0.154

PIN4 isoform 2 (UniProt Q9Y237)
inactive: [1] -0.012 | [2] -0.003 | [3] 0.025 | [4] -0.031 | [5] -0.008 | [6] -0.021 | [7] 0.033 | [8] 0.033 | [9] 0.004 | [10] 0.016 | [11] 0.022 | [12] 0.016 | [13] -0.016 | [14] -0.064 | [15] -0.026 | [16] -0.062 | [17] 0.012 | [18] -0.043 | [19] 0.013 | [20] -0.017

Reference: the supplement of paper PMC10849652
